Reference: patent US10857167B2, “Use of oligosaccharide compositions to enhance weight gain” (Children's Hospital Medical Center, priority 2015, dated 2020)
Further values from the same series stand in other lists.

Tested on: distal small bowel gene expression
Assay: RNA sequencing / transcriptional analysis of small bowel 56 days after ICR (2′-FL signature response)
Assay type: in vivo, mouse
Source text: Luminal small bowel contents were expressed into AllProtect Tissue Reagent (Qiagen Inc, CA). Bacterial DNA was extracted using the AllPrep DNA/RNA Mini Kit (Qiagen Inc, CA), according to kit instructions and prior to sequencing (described below). Small bowel tissue samples for RNA were placed into RNA Later (Life Technologies, NY). RNA extraction was accomplished following Qiagen RNeasy Plus Kit instruction (Qiagen Inc, CA). All nucleic acid samples were then stored at -80 Celsius until sequenced (described below). Transcriptional analysis was carried out on resected and harvested small bowel samples obtained from operated mice taken to 8 weeks. Murine RNA sequencing libraries were prepared from approximately 1.5 μg RNA using the TruSeq RNA Sample Preparation Kit (Illumina, Calif.) and sequenced using the HiSeq 2000 Sequencing System (Illumina, Calif.) with single-end 50 bp reads. Following removal of primers and barcodes, sequences were aligned to the mm10 genome using reference annotations from UCSC (Rosenbloom et al. (2015) Nucleic acids research 43: […]-681) (n=36,186 entities). Aligned reads were quantified and used to compute reads per kilobase per million mapped reads (RPKM); raw counts were then normalized using the DESeq algorithm and each harvested sample was baselined to its own resected sample. A filter was applied to the data, requiring at least three reads in all samples of at least one of the four experimental conditions (n=14,489 entities). The data discussed in this publication have been deposited in NCBI's Gene Expression Omnibus and are accessible through NCBI Gene Expression Omnibus (GEO) Series accession number GSE72590. Edgar et al. (2002) Nucleic acids research 30: 207-210. In order to characterize the impact of 2'-FL supplementation while accounting for the effect of ileoecal resection, a t-test was applied between resected and harvested samples within control and experimental animals. Significance was set at a p-value of ≤0.05 and a fold change of 3, which generated 2,576 differentially regulated entities across two comparisons. Gene set unions and intersections of the control and experimental gene sets were identified through Venn diagrams. From the master list, the gene list specific to animals supplemented with 2'-FL were removed in order to identify genes differentially regulated only by ICR (n=546 entities); this gene set characterizes the adaptive response. Further, the 2'-FL response (n=2,030 entities) was identified by removing the adaptive response signature described above from the master list, leaving only genes regulated by 2'-FL supplementation after ICR which were not found in the non-supplemented adaptive response. Heatmaps were generated using hierarchical clustering with the Pearson's Centered distance metric and the average linkage rule; both entities and samples were clustered. All genomic analyses described above were performed in Strand NGS (Strand Life Sciences, CA). Gene list functional enrichment was initially discovered using ToppFun, a member of the ToppGene Suite. Chen et al. (2009) Nucleic acids research 37: […]-311. No statistical correction was selected. Gene lists were further analyzed using ClueGO, a plugin for Cytoscape designed to decipher functionally grouped gene ontology and pathway annotation networks. Bindea et al. (2009) Bioinformatics 25: 1091-1093. At the time of data analysis, the annotation files were updated from sources to Jan. 1, 2015. “GO Term Fusion” was enabled to manage ontologic term redundancy and network specificity was set to medium. Results were restricted to pathways with p≤0.05 using Benjamini-Hochberg correction and Kappa scoring was set to 0.4. Biocyc annotations were assigned a rectangle, gene ontology biologic processes were assigned an ellipse, and […] annotations were assigned a diamond shape. No meaning was assigned to size or color. […]

In the case of `C[C@@H]1O[C@@H](O[C@H]2[C@H](O[C@H]3[C@H](O)[C@@H](O)C(O)O[C@@H]3CO)O[C@H](CO)[C@H](O)[C@@H]2O)[C@@H](O)[C@H](O)[C@@H]1O` (stereo partly drawn) [2′-FL, 2′-fucosyllactose], the “Fold Change (Pre- to Post-op)” value (15-Sep) is reported as 4.813, the “Fold Change (Pre- to Post-op)” value (0610007P14Rik) is reported as 3.908 and the “Fold Change (Pre- to Post-op)” value (0610008F07Rik) is reported as 8.362. The “Fold Change (Pre- to Post-op)” value (0610009B22Rik) was 3.407, the “Fold Change (Pre- to Post-op)” value (1110001A16Rik) was 4.082 and the “Fold Change (Pre- to Post-op)” value (1110001J03Rik) was 4.318. For the same molecule, the “Fold Change (Pre- to Post-op)” value (1110008F13Rik) was 3.013, the “Fold Change (Pre- to Post-op)” value (1110008P14Rik) was 3.31 and the “Fold Change (Pre- to Post-op)” value (1110034G24Rik) was 4.269. The “Fold Change (Pre- to Post-op)” value (1110046J04Rik) was 5.462, the “Fold Change (Pre- to Post-op)” value (1110059E24Rik) was 3.386 and the “Fold Change (Pre- to Post-op)” value (1110065P20Rik) was 3.231. For the same molecule, the “Fold Change (Pre- to Post-op)” value (1190002F15Rik) was 3.327, the “Fold Change (Pre- to Post-op)” value (1500009L16Rik) was 3.939 and the “Fold Change (Pre- to Post-op)” value (1500011K16Rik) was 4.922. The “Fold Change (Pre- to Post-op)” value (1500012F01Rik) was 5.374, the “Fold Change (Pre- to Post-op)” value (1600020E01Rik) was 3.548 and the “Fold Change (Pre- to Post-op)” value (1700001C19Rik) was 6.39. The “Fold Change (Pre- to Post-op)” value (1700007L15Rik) was 3.598, the “Fold Change (Pre- to Post-op)” value (1700011J10Rik) was 3.153 and the “Fold Change (Pre- to Post-op)” value (1700012D14Rik) was 5.796. The “Fold Change (Pre- to Post-op)” value (1700024P16Rik) was 3.748, the “Fold Change (Pre- to Post-op)” value (1700066M21Rik) was 3.487 and the “Fold Change (Pre- to Post-op)” value (1700123I01Rik) was 3.901. The “Fold Change (Pre- to Post-op)” value (1810022K09Rik) was 3.829, the “Fold Change (Pre- to Post-op)” value (1810037I17Rik) was 3.823 and the “Fold Change (Pre- to Post-op)” value (2010010A06Rik) was 3.358. The “Fold Change (Pre- to Post-op)” value (2010106C02Rik) was 4.514, the “Fold Change (Pre- to Post-op)” value (2010107E04Rik) was 3.76 and the “Fold Change (Pre- to Post-op)” value (2010107G23Rik) was 3.868. For the same molecule, the “Fold Change (Pre- to Post-op)” value (2010315B03Rik) was 3.599, the “Fold Change (Pre- to Post-op)” value (2200002D01Rik) was 3.45 and the “Fold Change (Pre- to Post-op)” value (2200002J24Rik) was 15.95. The “Fold Change (Pre- to Post-op)” value (2210404O09Rik) was 3.071, the “Fold Change (Pre- to Post-op)” value (2210407C18Rik) was 3.899 and the “Fold Change (Pre- to Post-op)” value (2310009B15Rik) was 3.562. For the same molecule, the “Fold Change (Pre- to Post-op)” value (2310011J03Rik) was 3.309, the “Fold Change (Pre- to Post-op)” value (2310040G24Rik) was 4.638 and the “Fold Change (Pre- to Post-op)” value (2410006H16Rik) was 3.043. For the same molecule, the “Fold Change (Pre- to Post-op)” value (2410015M20Rik) was 3.879, the “Fold Change (Pre- to Post-op)” value (2410018M08Rik) was 3.287 and the “Fold Change (Pre- to Post-op)” value (2610044O15Rik8) was 3.978. For the same molecule, the “Fold Change (Pre- to Post-op)” value (2810001G20Rik) was 3.668, the “Fold Change (Pre- to Post-op)” value (2810008D09Rik) was 3.37 and the “Fold Change (Pre- to Post-op)” value (2810013P06Rik) was 3.018. For the same molecule, the “Fold Change (Pre- to Post-op)” value (2810433D01Rik) was 6.1, the “Fold Change (Pre- to Post-op)” value (3110040N11Rik) was 3.233 and the “Fold Change (Pre- to Post-op)” value (3110056K07Rik) was 4.093. The “Fold Change (Pre- to Post-op)” value (3110070M22Rik) was 7.551, the “Fold Change (Pre- to Post-op)” value (4930415O20Rik) was 4.883 and the “Fold Change (Pre- to Post-op)” value (4933422H20Rik) was 4.499. The “Fold Change (Pre- to Post-op)” value (5033403H07Rik) was 4.67, the “Fold Change (Pre- to Post-op)” value (5033411D12Rik) was 3.505 and the “Fold Change (Pre- to Post-op)” value (5730408K05Rik) was 5.448. For the same molecule, the “Fold Change (Pre- to Post-op)” value (5830416P10Rik) was 10.25, the “Fold Change (Pre- to Post-op)” value (6720489N17Rik) was 4.273 and the “Fold Change (Pre- to Post-op)” value (9530052C20Rik) was 4.033. The “Fold Change (Pre- to Post-op)” value (A430005L14Rik) was 3.813, the “Fold Change (Pre- to Post-op)” value (A630001O12Rik) was 10.88 and the “Fold Change (Pre- to Post-op)” value (A730063M14Rik) was 5.514. For the same molecule, the “Fold Change (Pre- to Post-op)” value (A930006K02Rik) was 6.095, the “Fold Change (Pre- to Post-op)” value (A930015D03Rik) was 3.192 and the “Fold Change (Pre- to Post-op)” value (AA465934) was 7.221. The “Fold Change (Pre- to Post-op)” value (AA467197) was 6.565, the “Fold Change (Pre- to Post-op)” value (Abhd11os) was 3.549 and the “Fold Change (Pre- to Post-op)” value (Abhd17a) was 3.094. The “Fold Change (Pre- to Post-op)” value (Acbd4) was 3.196, the “Fold Change (Pre- to Post-op)” value (Acn9) was 5.819 and the “Fold Change (Pre- to Post-op)” value (Acot12) was 3.166. The “Fold Change (Pre- to Post-op)” value (Acot13) was 3.51, the “Fold Change (Pre- to Post-op)” value (Actr6) was 3.571 and the “Fold Change (Pre- to Post-op)” value (Acyp1) was 3.962. For the same molecule, the “Fold Change (Pre- to Post-op)” value (Adh6a) was 3.5, the “Fold Change (Pre- to Post-op)” value (Adprm) was 3.567 and the “Fold Change (Pre- to Post-op)” value (Agbl3) was 3.602. For the same molecule, the “Fold Change (Pre- to Post-op)” value (Agbl5) was −3.003, the “Fold Change (Pre- to Post-op)” value (Akr1b8) was 3.435 and the “Fold Change (Pre- to Post-op)” value (Akr1c12) was 3.469. For the same molecule, the “Fold Change (Pre- to Post-op)” value (Akr1c13) was 6.507, the “Fold Change (Pre- to Post-op)” value (Akr1c19) was 8.797 and the “Fold Change (Pre- to Post-op)” value (Aldh1a1) was 3.377. The “Fold Change (Pre- to Post-op)” value (Aldh1a7) was 3.27, the “Fold Change (Pre- to Post-op)” value (Aldoc) was 5.654 and the “Fold Change (Pre- to Post-op)” value (Alkbh7) was 3.67. The “Fold Change (Pre- to Post-op)” value (Ankrd13b) was −3.01, the “Fold Change (Pre- to Post-op)” value (Anxa9) was 3.441 and the “Fold Change (Pre- to Post-op)” value (Apitd1) was 3.826. The “Fold Change (Pre- to Post-op)” value (Apoa2) was 9.395, the “Fold Change (Pre- to Post-op)” value (Apoc3) was 3.491 and the “Fold Change (Pre- to Post-op)” value (Apoc4) was 4.486. The “Fold Change (Pre- to Post-op)” value (Apopt1) was 3.11, the “Fold Change (Pre- to Post-op)” value (Arf5) was 3.548 and the “Fold Change (Pre- to Post-op)” value (Arhgap11a) was −3.009. For the same molecule, the “Fold Change (Pre- to Post-op)” value (Arl1) was 3.797, the “Fold Change (Pre- to Post-op)” value (Arl4a) was 3.405 and the “Fold Change (Pre- to Post-op)” value (Arsg) was 3.436. For the same molecule, the “Fold Change (Pre- to Post-op)” value (Art2a-ps) was 3.494, the “Fold Change (Pre- to Post-op)” value (Atf3) was 3.938 and the “Fold Change (Pre- to Post-op)” value (Atg4a-ps) was 3.505. The “Fold Change (Pre- to Post-op)” value (Atg5) was 3.402, the “Fold Change (Pre- to Post-op)” value (Atg12) was 3.227 and the “Fold Change (Pre- to Post-op)” value (Atox1) was 3.524. For the same molecule, the “Fold Change (Pre- to Post-op)” value (Atp5e) was 6.206, the “Fold Change (Pre- to Post-op)” value (Atp5f1) was 3.505 and the “Fold Change (Pre- to Post-op)” value (Atp5j) was 3.073. For the same molecule, the “Fold Change (Pre- to Post-op)” value (Atp5k) was 5.325, the “Fold Change (Pre- to Post-op)” value (Atp5l) was 4.679 and the “Fold Change (Pre- to Post-op)” value (Atp5o) was 3.522. The “Fold Change (Pre- to Post-op)” value (Atp6v0b) was 3.974, the “Fold Change (Pre- to Post-op)” value (Atp6v0e) was 3.054 and the “Fold Change (Pre- to Post-op)” value (Atp6v1g1) was 3.248. The “Fold Change (Pre- to Post-op)” value (Atp5h) was 3.312, the “Fold Change (Pre- to Post-op)” value (B9d1) was 3.968 and the “Fold Change (Pre- to Post-op)” value (BC002163) was 3.924. For the same molecule, the “Fold Change (Pre- to Post-op)” value (BC025446) was 3.651, the “Fold Change (Pre- to Post-op)” value (BC029214) was 3.516 and the “Fold Change (Pre- to Post-op)” value (BC035044) was 5.04. The “Fold Change (Pre- to Post-op)” value (BC051226) was 3.802, the “Fold Change (Pre- to Post-op)” value (BC061194) was 5.845 and the “Fold Change (Pre- to Post-op)” value (BC096441) was 4.013.
